# Reference: PubChem BioAssay AID651640 (Broad Institute, 2012)
# The campaign covered roughly 350,000 compounds. About 6,000 (1.7%) were called active. This list was built around the results that the source calls inconclusive (neither active nor inactive); the mix of calls is not that of the screen. Cut-off read from the data, not from the text of the source: active = CPE inhibition above about 20% (passing the limit was not always enough); inconclusive = no clear call, values can overlap the other calls; tested in BHK-21 cells.
# Test: protection of cells from dengue 2 killing – plate reader, single concentration, primary screen (AID 651640);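 note: 0% = median of neutral control wells and 100% = median of positive control wells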
# Conditions: DENV2-infected cells, cytopathic effect rescue, at 9.99 µM, stronger effect = higher value
row,Structure (SMILES),CPE inhibition
1,Cc1ccc(C(C)C)cc1OCC(=O)Nc1ccccc1N1CCCC1,inconclusive: 25.1%
2,COc1cccc(C(O)c2nc(-c3ccncc3)cs2)c1 (stereo unspecified),inconclusive: 47.2%
3,Cc1[nH]nc(-c2cccnc2)c1N=NN(C)C,inactive: -4.29%
4,COc1ccc(NC(=O)Nc2ccc3c(c2)[C@@H]2C[C@@H](CC(=O)NCC4CC4)O[C@@H](CO)[C@@H]2O3)cc1,inactive: 15.9%
5,COC(=O)[C@]1(Sc2ccc(C)cc2)CC(=O)N[C@@H]1c1ccco1,inconclusive: 22%
6,CN1C(=O)c2cc(NC(=O)c3ccc(F)c(F)c3)ccc2OC[C@H]2O[C@@H](CC(=O)Nc3ccc4c(c3)COC4)CC[C@@H]21,inconclusive: 36.3%
7,CCN(C[C@@H]1N[C@H](CO)[C@H]1c1ccc(-c2cccc(C#N)c2)cc1)C(=O)COC,inactive: -13.4%
8,O=C(c1ccc2c(c1)N(Cc1ccccc1)CCS2)N1CCOCC1,inactive: -3.64%
9,CCc1cc(Cn2nc(-c3ccccc3)cc2C(=O)NCC2CC2)on1,active: 47.8%
10,Cc1ccc(Nc2cc(C)nc3c(C)cccc23)cc1,inconclusive: 25.6%
11,NCCCCCCNC(=O)[C@H]1C[C@H]2C(=O)N[C@@H](Cc3ccccc3)C(=O)N2[C@H]1c1cccc(OCCO)c1,active: 21.2%
12,CC(C)NC(=O)N(C)C[C@H]1Oc2c(NS(=O)(=O)c3ccc(Cl)cc3)cccc2C(=O)N([C@H](C)CO)C[C@@H]1C,inconclusive: 27.7%
13,CN1C(=O)c2cc(NC(=O)c3ccc4c(c3)OCO4)ccc2OC[C@H]2O[C@@H](CC(=O)O)CC[C@@H]21,active: 39.9%
14,CCCC(=O)Nc1ccc2c(c1)C(=O)N(C)C[C@@H](OC)[C@@H](C)CN(Cc1ccccc1F)[C@H](C)CO2,inactive: 6.57%
15,NC(=O)C1(NC(=O)[C@@H]2CC3(CC(c4cccc(NC(=O)[C@@H]5CCC(=O)N5)c4)=NO3)CN2C(=O)c2ccccc2)CC1 (stereo partly specified),inconclusive: 30.8%
16,CC(C)(C)OC(=O)CC(S(=O)(=O)c1ccccc1)S(=O)(=O)c1ccccc1,inactive: 5.12%
17,O=[N+]([O-])c1ccc(C[n+]2cccc(O)c2)cc1,active: 66.8%
18,O=C(N[C@H]1CC[C@H](CC(=O)N2CCc3ccccc3C2)O[C@H]1CO)C1CCOCC1,inconclusive: 26.3%
19,C[C@H](CO)N1C[C@H](C)[C@H](CN(C)Cc2cncnc2)Oc2cc(C3=CCCCC3)ccc2S1(=O)=O,active: 29.5%
20,Cc1cc2oc3ccc(NCCCN4CCOCC4)cc3c(=O)c2cc1C,active: 37.4%
21,C[C@@H]1CCCCO[C@H](CN(C)C(=O)Cc2ccccc2)[C@H](C)CN([C@H](C)CO)C(=O)c2cc(NS(=O)(=O)c3ccc(F)cc3)ccc2O1,active: 27.6%
22,COC(/C=C/Nc1ccc(C)cc1)=C(C#N)C#N,inconclusive: 25.4%
23,COc1ccc(C(C)(NC(C)=O)c2nc(-c3ccncc3)cs2)cc1 (stereo unspecified),inconclusive: 21.8%
24,C[C@H](CO)N1C[C@H](C)[C@H](CN(C)Cc2ccc(C(=O)Nc3ccccc3N)cc2)Oc2c(NS(=O)(=O)c3ccc(F)cc3)cccc2C1=O,inactive: 13.8%

# Laid out differently: entries from further up.
row | Structure (SMILES) | CPE inhibition
2 | COc1cccc(C(O)c2nc(-c3ccncc3)cs2)c1 (stereo unspecified) | inconclusive: 47.2%
3 | Cc1[nH]nc(-c2cccnc2)c1N=NN(C)C | inactive: -4.29%
4 | COc1ccc(NC(=O)Nc2ccc3c(c2)[C@@H]2C[C@@H](CC(=O)NCC4CC4)O[C@@H](CO)[C@@H]2O3)cc1 | inactive: 15.9%
5 | COC(=O)[C@]1(Sc2ccc(C)cc2)CC(=O)N[C@@H]1c1ccco1 | inconclusive: 22%
6 | CN1C(=O)c2cc(NC(=O)c3ccc(F)c(F)c3)ccc2OC[C@H]2O[C@@H](CC(=O)Nc3ccc4c(c3)COC4)CC[C@@H]21 | inconclusive: 36.3%
7 | CCN(C[C@@H]1N[C@H](CO)[C@H]1c1ccc(-c2cccc(C#N)c2)cc1)C(=O)COC | inactive: -13.4%
8 | O=C(c1ccc2c(c1)N(Cc1ccccc1)CCS2)N1CCOCC1 | inactive: -3.64%
9 | CCc1cc(Cn2nc(-c3ccccc3)cc2C(=O)NCC2CC2)on1 | active: 47.8%
10 | Cc1ccc(Nc2cc(C)nc3c(C)cccc23)cc1 | inconclusive: 25.6%
11 | NCCCCCCNC(=O)[C@H]1C[C@H]2C(=O)N[C@@H](Cc3ccccc3)C(=O)N2[C@H]1c1cccc(OCCO)c1 | active: 21.2%
12 | CC(C)NC(=O)N(C)C[C@H]1Oc2c(NS(=O)(=O)c3ccc(Cl)cc3)cccc2C(=O)N([C@H](C)CO)C[C@@H]1C | inconclusive: 27.7%
13 | CN1C(=O)c2cc(NC(=O)c3ccc4c(c3)OCO4)ccc2OC[C@H]2O[C@@H](CC(=O)O)CC[C@@H]21 | active: 39.9%
14 | CCCC(=O)Nc1ccc2c(c1)C(=O)N(C)C[C@@H](OC)[C@@H](C)CN(Cc1ccccc1F)[C@H](C)CO2 | inactive: 6.57%
15 | NC(=O)C1(NC(=O)[C@@H]2CC3(CC(c4cccc(NC(=O)[C@@H]5CCC(=O)N5)c4)=NO3)CN2C(=O)c2ccccc2)CC1 (stereo partly specified) | inconclusive: 30.8%
16 | CC(C)(C)OC(=O)CC(S(=O)(=O)c1ccccc1)S(=O)(=O)c1ccccc1 | inactive: 5.12%
17 | O=[N+]([O-])c1ccc(C[n+]2cccc(O)c2)cc1 | active: 66.8%

# Further records follow:

row,Structure (SMILES),CPE inhibition
1,O=C(c1ccc2c(c1)OCO2)N1CC(=O)N2[C@H](CO)[C@H](c3ccc(-c4ccccc4)cc3)[C@@H]2C1,active: 49.3%
2,CCCc1cc(=O)[nH]c(SCC(=O)NC(=O)NC2CCCC2)n1,inactive: -6.14%
3,COC1OC2COC(c3ccccc3)OC2C(OC(C)=O)C1OC(C)=O (stereo unspecified),inconclusive: 40.4%
4,COC(=O)N/N=C/c1ccc(-c2ccc(Cl)c(Cl)c2)o1,inconclusive: 46.1%
5,CN(C)CCCNC(=O)C[C@@H]1CC[C@@H]2[C@H](COc3ccc(NC(=O)c4ccc5c(c4)OCO5)cc3C(=O)N2C)O1,inconclusive: 84.8%
6,c1ccc(OCc2ccc(CCCN3CCOCC3)cc2)cc1,inconclusive: 25.2%
7,O=C(NCC1CC1)c1onc(CSc2ccc(F)c(F)c2)c1C(=O)NCC1CC1,active: 63.5%
8,CCN(CC(=O)Nc1c(F)cccc1F)C(=O)c1n[nH]c2ccccc12,inconclusive: 45.7%
9,Cc1c(CCC(=O)NCCCN2CCCC2=O)c(=O)oc2cc(O)ccc12,active: 66.6%
10,Cc1cc(C)c(-c2c(O)c3cccnc3n(C)c2=O)c(C)c1,inconclusive: 24.3%
11,COc1ccc(NC(=O)Nc2ccc3c(c2)CC(=O)N([C@@H](C)CO)C[C@@H](C)[C@H](CN(C)C(=O)Nc2ccc(C(F)(F)F)cc2)O3)cc1,inconclusive: 30%
12,CCc1ccc(NC(=O)C(C)OC(=O)Cn2[nH]c(=O)c3ccccc3c2=O)cc1 (stereo unspecified),active: 59.7%
13,CC(C)(C)OC(=O)C[C@@H]1C/C=C\C[C@H](CC(=O)N(CCO)Cc2ccccc2)C(=O)NC[C@H](c2ccccc2)OC1=O,inconclusive: 34.7%
14,C[C@@H]1CN([C@@H](C)CO)C(=O)c2cc(NS(=O)(=O)c3ccc(F)cc3)ccc2O[C@@H](C)CCCCO[C@H]1CN(C)C(=O)C1CCCCC1,inactive: -0.108%
15,O=C(CCN1C(=O)[C@@H]2Cc3ccccc3CN2C1=O)Nc1cccc(F)c1,inconclusive: 28.2%
16,CC(C)C#Cc1ccc2c(c1)O[C@@H](CN(C)S(C)(=O)=O)[C@H](C)CN([C@H](C)CO)S2(=O)=O,inactive: -8.79%
17,COc1ccc(S(=O)(=O)N[C@@H]2CC[C@H](CCNC(=O)c3ccccc3F)O[C@@H]2CO)cc1,inactive: 11.1%
18,Cc1ccc(Cc2c(-c3ccc(C)cc3)nc3ccc(Cl)cn23)cc1,active: 24.6%
19,C/C=C/c1ccc2c(c1)O[C@H](CN(C)C(=O)c1cnccn1)[C@H](C)CN([C@H](C)CO)S2(=O)=O,inactive: -0.866%
20,Cc1nn(CC(=O)NC2C(=O)N3C(C(=O)O)=C(CSc4nnnn4C)CSC23)cc1Br (stereo unspecified),inconclusive: 29.7%
21,O=C(CSc1ccc(Br)cc1)Nc1ccccc1N1CCOCC1,inconclusive: 76.5%
22,Cc1ccc2nc(SCC(=O)NCCCN3CCCC3=O)[nH]c2c1,inconclusive: 49.8%
23,C/C(N)=C(/C#N)C(=O)CSc1nc2ccccc2c(=O)n1CCCOC(C)C,inactive: -1.31%
24,Cc1noc(C)c1NC(=O)N(C)C[C@H]1OCCCC[C@H](C)Oc2ccc(NC(=O)NC3CCCCC3)cc2C(=O)N([C@@H](C)CO)C[C@@H]1C,active: 27.7%

row,Structure (SMILES),CPE inhibition
1,CC(C)c1c(C(=O)N/N=C/c2ccco2)nnn1-c1nonc1N,inconclusive: 46.7%
2,CC(C)c1ccc(S(=O)(=O)N2CCN(C(=O)c3cccc(S(=O)(=O)N4CCOCC4)c3)CC2)cc1,inconclusive: 41.2%
3,C[C@H]1CCCCO[C@H](CN(C)Cc2ccc(C(F)(F)F)cc2)[C@@H](C)CN([C@@H](C)CO)C(=O)c2cc(NC(=O)CCCN(C)C)ccc2O1,inconclusive: 25.4%
4,O=C(NNC(=S)Nc1ccc(Cl)c(Cl)c1)c1cccc([N+](=O)[O-])c1,inconclusive: 22%
5,CCCNC(=O)N(C)C[C@H]1Oc2ncc(Br)cc2C(=O)N([C@@H](C)CO)C[C@H]1C,inactive: 4.89%
6,C/C=C/c1ccc([C@H]2[C@@H](CO)N3CCCCN(S(=O)(=O)c4ccccc4)C[C@@H]23)cc1,active: 115%
7,CN(C)CC(=O)Nc1ccc2c(c1)[C@H]1C[C@@H](CC(=O)N(C)C)O[C@H](CO)[C@H]1O2,inactive: 13.6%
8,C[C@@H]1CN([C@H](C)CO)C(=O)c2cc(-c3cncnc3)cnc2O[C@@H]1CN(C)C(=O)c1ccccc1F,inconclusive: 47.4%
9,CCN(CC(=O)Nc1ccc2c(c1)OCCO2)CC(=O)Nc1ccccc1C(F)(F)F,inconclusive: 26.3%
10,C[C@@H]1CN([C@@H](C)CO)C(=O)c2cc(NC(=O)CCC(F)(F)F)ccc2O[C@@H]1CN(C)C(=O)Nc1ccc2c(c1)OCO2,active: 31.2%
11,C[C@@H]1CCCCO[C@@H](CN(C)Cc2ccncc2)[C@H](C)CN([C@H](C)CO)C(=O)c2cc(NS(=O)(=O)c3cn(C)cn3)ccc2O1,inactive: -0.924%
12,CCCCn1c(N)c(C(=S)NC(=O)CC(C)(C)C)c(=O)n(C)c1=O,inconclusive: 38.5%
13,C/C=C/c1ccc([C@H]2[C@@H](C#N)N(C(=O)c3cccnc3)[C@H]2CO)cc1,inconclusive: 26.7%
14,O=C1[C@@H](Oc2ccccc2)[C@@H](c2ccccc2)N1c1cccnc1,inactive: -3.13%
15,CCc1ccc(-c2cc(C(=O)N3N=C(C(F)F)CC3(O)C(F)F)c3ccccc3n2)cc1 (stereo unspecified),inconclusive: 25.7%
16,CCOC(=O)[C@@H]1CSCCS(=O)(=O)N1C(=O)[C@H](C)NC(=O)OC(C)(C)C,inconclusive: 50.8%
17,C[C@H](NC(=O)c1nc[nH]c1C(=O)NC(c1ccccc1)c1ccccc1)C(=O)OCc1ccccc1,inconclusive: 52.1%
18,C[C@@H]1CCCCO[C@@H](CN(C)C(=O)CCC(F)(F)F)[C@H](C)CN([C@H](C)CO)C(=O)c2cc(NC(=O)c3ccncc3)ccc2O1,active: 20.8%
19,O=C(OCC(=O)N1CCc2ccccc21)[C@@H]1CC(O)CN1S(=O)(=O)c1ccccc1[N+](=O)[O-] (stereo partly specified),inconclusive: 25.6%
20,CN(C)CCCNC(=O)C(=O)NCC1OCCN1S(=O)(=O)c1cc(F)ccc1F (stereo unspecified),inconclusive: 29.6%
21,Cc1ccc(S(=O)(=O)N2C[C@H]3[C@@H](c4ccccc42)[C@H](CO)N3Cc2cccnc2)cc1,inactive: -3.81%
22,C/C(=C\c1cc2ccccc2o1)C1Nc2cccc3cccc(c23)N1,inconclusive: 64.4%
23,C[C@@H]1CN([C@@H](C)CO)C(=O)c2cc(-c3ccc(F)cc3)cnc2O[C@H]1CN(C)CC1CCCC1,active: 53.9%
